Experimental data: PubChem BioAssay AID1159584 (Peter MacCallum Cancer Centre, 2016)
Test: 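Genes whose loss is lethal only together with E-cadherin loss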 (primary screen). System: human MCF10A breast epithelial cells, parental and CDH1-null. Reagent: siRNA against human genes. Read-out: 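Cell viability by CellTiter-Glo ATP luminescence, each line scaled to the mean of mock wells across plates, then CDH1-null over parental ratio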. Reading the numbers: CDH1-null / parental viability ratio: higher = CDH1-null cells survive relatively better than parental; CDH1-null viability vs mock: higher = more viable CDH1-null cells; parental viability vs mock: higher = more viable parental cells.
Here is an unselected part of about 18,000 deposited reagents. Reagents against one gene are numbered here. No sequences are given here. Not stated in the record: the amount of reagent, the time to read-out.

The first 6 entries as a preview:
| gene | siRNA no. | CDH1-null / parental viability ratio | CDH1-null viability vs mock (fraction of mock) | parental viability vs mock (fraction of mock) |
| --- | --- | --- | --- | --- |
| TFB1M | 1 | 1.04 | 0.96 | 0.92 |
| SRSF7 | 1 | 1.06 | 0.7 | 0.66 |
| DERL2 | 1 | 0.88 | 0.44 | 0.5 |
| FOXD4L3 | 1 | 0.96 | 0.86 | 0.9 |
| FOXD4L3 | 2 | 1.09 | 1 | 0.92 |
| MAPDA | 1 | 0.9 | 1.04 | 1.15 |

Main list, from the start:
| gene | siRNA no. | CDH1-null / parental viability ratio | CDH1-null viability vs mock (fraction of mock) | parental viability vs mock (fraction of mock) |
| --- | --- | --- | --- | --- |
| TFB1M | 1 | 1.04 | 0.96 | 0.92 |
| SRSF7 | 1 | 1.06 | 0.7 | 0.66 |
| DERL2 | 1 | 0.88 | 0.44 | 0.5 |
| FOXD4L3 | 1 | 0.96 | 0.86 | 0.9 |
| FOXD4L3 | 2 | 1.09 | 1 | 0.92 |
| MAPDA | 1 | 0.9 | 1.04 | 1.15 |
| ZNF622 | 1 | 1 | 1.09 | 1.09 |
| FBXO6 | 1 | 0.91 | 0.74 | 0.81 |
| SMCO4 | 1 | 0.7 | 0.38 | 0.54 |
| PPFIBP1 | 1 | 0.97 | 0.91 | 0.94 |
| QSOX2 | 1 | 1.13 | 1.04 | 0.92 |
| ABHD17C | 1 | 0.82 | 0.72 | 0.88 |
| NPSR1 | 1 | 0.81 | 0.9 | 1.11 |
| RPS6KA4 | 1 | 0.63 | 0.43 | 0.68 |
| SOX6 | 1 | 1.13 | 0.81 | 0.72 |
| RBM3 | 1 | 0.98 | 0.48 | 0.49 |
| IPO13 | 1 | 0.87 | 0.69 | 0.79 |
| DEGS1 | 1 | 0.93 | 0.8 | 0.86 |
| TPRN | 1 | 0.96 | 0.81 | 0.84 |
| ELP3 | 1 | 0.87 | 0.84 | 0.97 |
| RNPEP | 1 | 0.9 | 0.61 | 0.68 |
| RETREG2 | 1 | 1.07 | 0.45 | 0.42 |
| ZNF761 | 1 | 1.33 | 0.64 | 0.48 |
| LYN | 1 | 0.93 | 0.78 | 0.84 |
| SNTB1 | 1 | 0.83 | 0.72 | 0.87 |
| SH3GLB2 | 1 | 0.89 | 0.86 | 0.97 |
| BMP2K | 1 | 0.99 | 0.91 | 0.92 |
| OOEP | 1 | 1.07 | 1.04 | 0.97 |
| FKBP3 | 1 | 0.79 | 0.62 | 0.78 |
| ZNF816 | 1 | 0.81 | 0.92 | 1.14 |
| GUCY2D | 1 | 1.1 | 0.64 | 0.58 |
| RBPMS | 1 | 1.25 | 0.5 | 0.4 |
| DDX11 | 1 | 0.89 | 0.85 | 0.95 |
| RPS4Y2 | 1 | 1.94 | 0.7 | 0.36 |
| PACRGL | 1 | 0.98 | 0.6 | 0.61 |
| GPBAR1 | 1 | 1.19 | 0.96 | 0.81 |
| BTAF1 | 1 | 0.98 | 0.64 | 0.65 |
| PRSS58 | 1 | 1.17 | 0.77 | 0.66 |
| SLC39A10 | 1 | 1.08 | 1.06 | 0.98 |
| KIAA1143 | 1 | 0.86 | 0.84 | 0.98 |
| POLR2L | 1 | 0.89 | 0.89 | 1 |
| THAP3 | 1 | 1.26 | 0.34 | 0.27 |
| MGAT3 | 1 | 1 | 0.72 | 0.72 |
| WDR45B | 1 | 1.08 | 0.78 | 0.72 |
| ASH2L | 1 | 1.31 | 0.92 | 0.7 |
| ZSCAN32 | 1 | 1.18 | 0.59 | 0.5 |
| STAR | 1 | 1.11 | 0.98 | 0.88 |
| IFNGR2 | 1 | 1.11 | 0.98 | 0.88 |
| CBLN2 | 1 | 1.58 | 0.52 | 0.33 |
| RLF | 1 | 0.89 | 0.66 | 0.74 |
| ZNF217 | 1 | 1.19 | 1.06 | 0.89 |
| TESK2 | 1 | 1 | 0.76 | 0.76 |
| ANO9 | 1 | 1.06 | 0.92 | 0.87 |
| UNC13D | 1 | 0.97 | 0.88 | 0.91 |
| SYPL1 | 1 | 1.03 | 0.97 | 0.94 |
| IL17RE | 1 | 0.87 | 0.66 | 0.76 |
| ID4 | 1 | 0.86 | 0.6 | 0.7 |
| TMEM106C | 1 | 1.15 | 1.01 | 0.88 |
| CNEP1R1 | 1 | 1.02 | 0.85 | 0.83 |
| ZNF620 | 1 | 1.26 | 1.06 | 0.84 |
| PRPF19 | 1 | 0.93 | 0.96 | 1.03 |
| CD33 | 1 | 1.43 | 0.96 | 0.67 |
| TMEM223 | 1 | 1.25 | 1.21 | 0.97 |
| DIS3L2 | 1 | 1.14 | 1.09 | 0.96 |
| PRSS33 | 1 | 1.17 | 0.82 | 0.7 |
| TTBK2 | 1 | 0.76 | 0.54 | 0.71 |
| WFDC13 | 1 | 1.27 | 0.99 | 0.78 |
| TRIM36 | 1 | 0.88 | 0.66 | 0.75 |
